This is one part of the list.

By UniProt entry, the sequences of proteins in these tests, tags left out.
UniProt Q0JBA9, entry or part of it: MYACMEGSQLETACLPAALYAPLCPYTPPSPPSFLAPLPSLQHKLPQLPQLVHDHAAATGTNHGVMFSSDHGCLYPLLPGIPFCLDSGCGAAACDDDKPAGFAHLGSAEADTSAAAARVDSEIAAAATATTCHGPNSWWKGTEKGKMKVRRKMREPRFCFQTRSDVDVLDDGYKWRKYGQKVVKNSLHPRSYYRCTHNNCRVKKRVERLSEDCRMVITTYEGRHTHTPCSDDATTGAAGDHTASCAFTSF

Consider 54 sequences from article PMC7819943, “Rice protein-binding microarrays: a tool to detect cis-acting elements near promoter regions in rice”.

This assay deals with OsWRKY34 (Oryza sativa, UniProt Q0JBA9 1-250). In words: protein-binding microarray (RPBM); PBS, 2% BSA, 51.3 ng/ul salmon testes DNA, 50 uM zinc acetate, 200 nM TF, 25 C, 1 h; high values mean tight binding. The conditions noted are these: protein: recombinant; tags: N-terminal polyhistidine and DsRed monomer fusion (pET32a); label: CyDye5-dUTP incorporated in the synthesized complementary strand; 3' TTTTT single-stranded linker to array surface; dsDNA, one strand shown. In short, it runs like this:
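A custom Agilent array was converted to double-stranded form by primer extension with Cy5-dUTP and blocked with 2% BSA. Protein at 200 nM in PBS with 2% BSA, salmon testes DNA and 50 µM zinc acetate was applied for 1 h at 25 °C, followed by washing. The proteins were polyhistidine–DsRed N-terminal fusions of transcription factors, expressed in E. coli BL21-CodonPlus and Ni–NTA-purified. The binding signal is per-feature fluorescence intensity (arbitrary units) from an Axon 4000B scanner.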
As to “ACGGGGCTTTTAACTATTTGTCACTCTTATGAATGGTGTTCGGAGTCACCTAGTGCAG”, the binding signal is 10200 fluorescence intensity (a.u.).

Regarding “CGTCTGTTGACACCGCCGCCACCACCGCCGCCGCCGTCCCCGGAGTCACCTAGTGCAG”, the binding signal was 8720 fluorescence intensity (a.u.).

As to “TACATTCATCTCGCCTTTTCTCATCTGCTTTGGCCTACCGCGGAGTCACCTAGTGCAG”, the binding signal is 8230 fluorescence intensity (a.u.).

As for “GCATATTTATGAAGTCATAGCTTCATTACAGCCAGCTTGTCGGAGTCACCTAGTGCAG”, the binding signal was 8360 fluorescence intensity (a.u.).

As for “GGTCTGCAGTTGGCTATCCATTTCTTTCATGTGAAGACAGCGGAGTCACCTAGTGCAG”, the binding signal is 8400 fluorescence intensity (a.u.).

In the case of “CTCCCTCCTTTTCTAAATGTTTGACACCATTGACTTTTTTCGGAGTCACCTAGTGCAG”, the binding signal is 8470 fluorescence intensity (a.u.).

In the case of “CTGACACGTAGGCCCCACTGTCATTGACCGTTACAACTCACGGAGTCACCTAGTGCAG”, the binding signal is 8110 fluorescence intensity (a.u.).

As for “CTTCCTCTCTTCTCTTTCTCTCTTCTTCCCCATCCCGTTACGGAGTCACCTAGTGCAG”, the binding signal was 8170 fluorescence intensity (a.u.).

Turning to “GGTAAAACATGTTGGATTTTATTTTGGTGGGATGTGCAATCGGAGTCACCTAGTGCAG”, the binding signal is 9620 fluorescence intensity (a.u.).

In the case of “AACTGTCACCGGCCGACGTTAATGCCATGCCGCCGCGTACCGGAGTCACCTAGTGCAG”, the binding signal was 8250 fluorescence intensity (a.u.).

As for “GGGAACGGTTTTGTTAGTTGAGGGATGCCGGTATCTGGTTCGGAGTCACCTAGTGCAG”, the binding signal was 8890 fluorescence intensity (a.u.).

On to “ACTTCTCGTCTTCCTCTCCTCTCTCTCGTTTCGATTCCCCCGGAGTCACCTAGTGCAG”, for which the binding signal is 8600 fluorescence intensity (a.u.).

“ATCTATAAGCGCTCACGCGCTATTTTGCTTTTGGTCCGAACGGAGTCACCTAGTGCAG”: the binding signal is 8620 fluorescence intensity (a.u.).

Turning to “GTCAAACTTGCTCGATCTCTTGCTCATCTGCGTGCACCTCCGGAGTCACCTAGTGCAG”, the binding signal was 8610 fluorescence intensity (a.u.).

“CTATTGTTCTCTAGCTGTTGTTCTCTAGTGTATTGTCCATCGGAGTCACCTAGTGCAG”: the binding signal is 9410 fluorescence intensity (a.u.).

Turning to “GGGCATCTCTTTCTTTCGCGTTCGGCTTCCTTCCCTGTTTCGGAGTCACCTAGTGCAG”, the binding signal is 11200 fluorescence intensity (a.u.).

On to “GTTGTTTATCGTTTTCTTGTTATTTTATGGATTTTATTGACGGAGTCACCTAGTGCAG”, for which the binding signal was 9860 fluorescence intensity (a.u.).

With “AAAAAATACTATCTATGTACCCCTCCGTTTCTTTTTATTTCGGAGTCACCTAGTGCAG”, the binding signal is 8890 fluorescence intensity (a.u.).

For the sequence “GCCCACGTCGTTCCCAAGCATATGCCCTAATCGGCTTTAACGGAGTCACCTAGTGCAG”, the binding signal is 8300 fluorescence intensity (a.u.).

In the case of “ATAGCTCATGCAACACAAGCCATTAATCTAATCTTGCATTCGGAGTCACCTAGTGCAG”, the binding signal was 8040 fluorescence intensity (a.u.).

Regarding “TACTGCTTCTCAGACATTCTTGTTGCACTGGAGATCCAGACGGAGTCACCTAGTGCAG”, the binding signal was 8780 fluorescence intensity (a.u.).

As to “GGAAGTTTTTGTCCTACTAGTGTGCAACCGTGCATCTATTCGGAGTCACCTAGTGCAG”, the binding signal was 8250 fluorescence intensity (a.u.).

In the case of “CTAGCACTACTCCTACTTTATCCGTTTCACAATATAGACACGGAGTCACCTAGTGCAG”, the binding signal was 8950 fluorescence intensity (a.u.).

Take “ATTACGGTTGCTCCTTTGTTTACTTTTTATGTTTAAAGCTCGGAGTCACCTAGTGCAG”: the binding signal is 10800 fluorescence intensity (a.u.).

As for “CAAGCGTTCACACCTTCGGCCTGGCCTTTTTTATACTCCCCGGAGTCACCTAGTGCAG”, the binding signal was 9670 fluorescence intensity (a.u.).

As to “GAGCATCAGAGCACCGTTTCTTTCCACCGCTCTCTCCCGACGGAGTCACCTAGTGCAG”, the binding signal was 9250 fluorescence intensity (a.u.).

In the case of “TGTGGTTTTTCCTGTCTACGTTTTTACACCCATGTTCTACCGGAGTCACCTAGTGCAG”, the binding signal is 9780 fluorescence intensity (a.u.).

On to “TTGCCATCTCTATCCACCACTGCCTCCCCTCCAAGGCACGCGGAGTCACCTAGTGCAG”, for which the binding signal is 8340 fluorescence intensity (a.u.).

Consider “AAAAAAGTCAACGGTATTAAATATTTAGGGATGTGGAGAGCGGAGTCACCTAGTGCAG”, for which the binding signal was 12200 fluorescence intensity (a.u.).

Consider “CGTCCCGCACAGCGCTCCTCTCTCCCGTGCGGCGCTCGTCCGGAGTCACCTAGTGCAG”, for which the binding signal is 8630 fluorescence intensity (a.u.).

Turning to “TAGCCTCTATACATTTACATCCAACATAATATCAAACTTTCGGAGTCACCTAGTGCAG”, the binding signal was 8610 fluorescence intensity (a.u.).

“CAATTCCTACGTTTTTCCTGCAGTTCAATCAAACGGTCATCGGAGTCACCTAGTGCAG”: the binding signal was 8650 fluorescence intensity (a.u.).

Turning to “TCTTTGTCTCTGTCTCTCTCTCCCGAGCTATAGCTACAGCCGGAGTCACCTAGTGCAG”, the binding signal is 12300 fluorescence intensity (a.u.).

On to “GCACTACCCTACTTTCGTCGGCCTCTCGACTCCTGGAACCCGGAGTCACCTAGTGCAG”, for which the binding signal was 10100 fluorescence intensity (a.u.).

Take “GGTGGCCCTACTTAATTACGCATGCAACGGAGGTTTAACGCGGAGTCACCTAGTGCAG”: the binding signal is 8790 fluorescence intensity (a.u.).

For “AATCCTTTATCCAGTAATCTTTTCTTTTTGATGATAGTTACGGAGTCACCTAGTGCAG”, the binding signal was 8610 fluorescence intensity (a.u.).

As for “GGCGATGGCGGGGCATGGATGTGGGCATGTGGCGCGACTACGGAGTCACCTAGTGCAG”, the binding signal is 8780 fluorescence intensity (a.u.).

Turning to “CTTAGCCGCTTATACCTAATCGAACGGTGAGCCTATCCTCCGGAGTCACCTAGTGCAG”, the binding signal was 8520 fluorescence intensity (a.u.).

Turning to “GTATGCTCTCTGAATGACATGTATTATTTTTCTCTCGAAACGGAGTCACCTAGTGCAG”, the binding signal is 8110 fluorescence intensity (a.u.).

For “ATTTTTTGTGTTCCAACCTTTCTTGTCTTGTTATTTTACCCGGAGTCACCTAGTGCAG”, the binding signal was 13400 fluorescence intensity (a.u.).

On to “CACCCCTACTTGTATTTCGAAATTAACATACATCATTTTTCGGAGTCACCTAGTGCAG”, for which the binding signal is 9890 fluorescence intensity (a.u.).

Regarding “TGTTTGCTGAGGAAGTTTTCAACTAGCACTTCGCTATCAACGGAGTCACCTAGTGCAG”, the binding signal is 8840 fluorescence intensity (a.u.).

In the case of “GCAGGATCTCCACTCCGGTCCCACTTACTGACACCTCTCTCGGAGTCACCTAGTGCAG”, the binding signal is 9070 fluorescence intensity (a.u.).

As to “CCCTTATCTCTTCTCTGCTTCTCGTTCTTTTCTCTCTCTCCGGAGTCACCTAGTGCAG”, the binding signal is 12800 fluorescence intensity (a.u.).

On to “TGTGAGACCTACATGTCATACTCCTCTTGCTCTATCGATCCGGAGTCACCTAGTGCAG”, for which the binding signal was 10100 fluorescence intensity (a.u.).

On to “ATTTGTTGTTTCATTTGTATTGTTTTGTGTTGGTTTATGTCGGAGTCACCTAGTGCAG”, for which the binding signal is 8940 fluorescence intensity (a.u.).

As for “AGTTAGATCCGTGTCACATTTCATGTTTTGTCCTCATTCTCGGAGTCACCTAGTGCAG”, the binding signal is 10600 fluorescence intensity (a.u.).

In the case of “GCTTTGATTCAAATGGGCCCTGAAATTCCTATGAATTTCTCGGAGTCACCTAGTGCAG”, the binding signal is 8120 fluorescence intensity (a.u.).

In the case of “ATATACTTTCATGTACACATATAGTTTTACATATTTCATACGGAGTCACCTAGTGCAG”, the binding signal was 10500 fluorescence intensity (a.u.).

As for “AATACTTACAACGTGTCCGATGTTCCCAGTAATCCTTTCCCGGAGTCACCTAGTGCAG”, the binding signal is 8150 fluorescence intensity (a.u.).

Take “TGTGTTTGTGGATTAGGTAGGGAGGGATAAAGAAGTACTACGGAGTCACCTAGTGCAG”: the binding signal was 11200 fluorescence intensity (a.u.).

As for “AAATAAATGTTCTCTTTGACCCTTTTAAGACATTGTTCTCCGGAGTCACCTAGTGCAG”, the binding signal is 9070 fluorescence intensity (a.u.).

Turning to “TGTGCCCATGGATTTGAACTTTGAACATAGGTTATGGATTCGGAGTCACCTAGTGCAG”, the binding signal was 8800 fluorescence intensity (a.u.).

Turning to “AACTTGTCCGTCCCTCACGTCACTTCTGTAAATGTTTATACGGAGTCACCTAGTGCAG”, the binding signal is 14700 fluorescence intensity (a.u.).
